Reference: paper PMC11506057, “Identification of Podoplanin Aptamers by SELEX for Protein Detection and Inhibition of Platelet Aggregation Stimulated by C-Type Lectin-like Receptor 2”

Chains of the proteins cited; added tags and fusions are not shown. Lines headed by an entry give the natural chain unless they say otherwise; changes in a name come on top.
UniProt Q9P126: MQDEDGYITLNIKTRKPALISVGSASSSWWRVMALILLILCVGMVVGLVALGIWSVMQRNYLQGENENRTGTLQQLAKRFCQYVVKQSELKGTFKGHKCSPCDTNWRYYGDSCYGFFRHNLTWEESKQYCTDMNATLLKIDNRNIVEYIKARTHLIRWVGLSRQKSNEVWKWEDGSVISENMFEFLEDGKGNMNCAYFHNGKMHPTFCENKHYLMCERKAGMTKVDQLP

What was measured:
[1] = target: podoplanin (PDPN), denatured (UniProt Q86YL7); experiment: dot blot; conditions: denatured PDPN, commercial protein, protein details: His, Fc, folded or branched DNA
[2] = target: podoplanin (PDPN), denatured (UniProt Q86YL7); experiment: Western blot with aptamer probe; conditions: 200 nM biotin-A1, signal linear with PDPN, R2 0.8984; commercial protein; protein details: His, Fc; folded or branched DNA
[3] = target: CLEC-2 with C-terminal His-Tag (human) (UniProt Q9P126); experiment: flow cytometry; conditions: FAM-A1 1 uM, HEK293T; protein on the cell surface; protein details: C-terminal His; folded or branched DNA
[4] = target: podoplanin (PDPN) on PDPN+-OECM-1 cells (UniProt Q86YL7); experiment: flow cytometry; conditions: concentration-dependent, PDPN-negative CHO-K1 cells not bound; protein on the cell surface; folded or branched DNA
[5] = target: CLEC-2 without tag (human) (UniProt Q9P126); experiment: flow cytometry; conditions: FAM-A1 1 uM, HEK293T; protein on the cell surface; folded or branched DNA
[6] = target: T1, podoplanin (PDPN), recombinant PDPN-His-Fc (UniProt Q86YL7); experiment: dot blot; conditions: PDPN 50 nM, aptamer 80 nM, weakest of six, commercial protein, protein details: His, label: biotin, folded or branched DNA
T1 sequence (looked up, limits assumed): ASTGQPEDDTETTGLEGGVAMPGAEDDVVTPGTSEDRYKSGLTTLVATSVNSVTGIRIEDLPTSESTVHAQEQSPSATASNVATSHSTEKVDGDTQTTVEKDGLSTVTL

## ATCCAGAGTGACGCAGCATGCAGGGTTTGGCTTCGGGCCTGGCGGAGAGAGCGTGAGGTGGACACGGTGGCTTAGT [A1498]
[1]; label: biotin
  binding result: binds more weakly

## ATCCAGAGTGACGCAGCACACCGAGGGGACTGCTCGGGATTGCGGATGAGGTAGCAAGTGGACACGGTGGCTTAGT [A6]
[1]; label: biotin
  binding result: binds more weakly

## ATCCAGAGTGACGCAGCATGCCAAAGGGTCTGCTCGGGATTGCGGAGAGGGCTTGGGGTGGACACGGTGGCTTAGT [A5]
[1]; label: biotin
  binding result: binds more weakly

## ATCCAGAGTGACGCAGCATCACTAGTGCGCCAGGGGGACTGCTCGGGATTGCGGATACTGGACACGGTGGCTTAGT [A1]
[2]
  binding result: binds
[3]
  binding result: no binding
[4]
  binding result: binds
[5]
  binding result: no binding
[1]; recognized, but less than native
  binding result: binds more weakly

## ATCCAGAGTGACGCAGCATGGGGGGAGAGTGTGGTCTGGCTTGGTGGGGTCTGGGGGCTGGACACGGTGGCTTAGT [A77]
[6]
  binding result: binds more weakly
[1]; label: biotin
  binding result: binds more weakly

## ATCCAGAGTGACGCAGCACGGGTTTGGCGCCGGGCCTGGCGGGTGTAGCGTTTTTGGGTGGACACGGTGGCTTAGT [A289]
[1]; label: biotin
  binding result: binds more weakly

The exact form of at least one protein or probe is not confirmed. For some assays here: A weaker result is weaker than the reference pair of the same experiment. For some assays here: At least one verdict was read from the data and is not stated in words by the source. For some assays here: Tags and fusion partners may be left off the protein sequences shown. For some assays here: Where cells or extracts were used, other partners may take part. For some assays here: No signal at the amounts used counts as a negative.
